PubChem BioAssay AID1259424 – University of Nebraska Medical Center, 2018
Shown is a random part of about 14,000 reagents tested. 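Higher correlation or smaller distance means closer resemblance to KSR1 loss; control wells, including KSR1 knockdowns, recur on many plates.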 Further read-outs or replicates are left out here. Not stated in the record: the time to read-out.

- Aim: 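Rank knockdowns across the genome by resemblance to the KSR1 depletion profile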 (primary screen)
- Cells: human HCT116 colon cancer cells
- Reagents: siRNA pool against human genes, 50 nM
- Detection: 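Six signature mRNAs by branched-DNA multiplex assay, scaled to two housekeeping genes and non-targeting median, log2; matched to mean KSR1 knockdown profile by Pearson correlation and euclidean distance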
- Reading the numbers: mean correlation with KSR1 profile: higher = expression change more like KSR1 knockdown; mean distance from KSR1 profile: higher = expression change less like KSR1 knockdown

SLC25A2 — mean correlation with KSR1 profile: 0.886; mean distance from KSR1 profile: 1.35
GABRA5 — mean correlation with KSR1 profile: 0.203; mean distance from KSR1 profile: 2.27
SEC24D — mean correlation with KSR1 profile: -0.316; mean distance from KSR1 profile: 1.66
MTF2 — mean correlation with KSR1 profile: 0.407; mean distance from KSR1 profile: 1.47
STK17A — mean correlation with KSR1 profile: 0.0535; mean distance from KSR1 profile: 1.46
LUC7L — mean correlation with KSR1 profile: 0.0532; mean distance from KSR1 profile: 2.71
ACADSB — mean correlation with KSR1 profile: 0.267; mean distance from KSR1 profile: 1.33
TERF2 — mean correlation with KSR1 profile: 0.707; mean distance from KSR1 profile: 1.25
TRAM1 — mean correlation with KSR1 profile: -0.404; mean distance from KSR1 profile: 1.51
MORC4 — mean correlation with KSR1 profile: 0.0943; mean distance from KSR1 profile: 1.64
ACADM — mean correlation with KSR1 profile: 0.761; mean distance from KSR1 profile: 2.06
ISLR — mean correlation with KSR1 profile: -0.104; mean distance from KSR1 profile: 2.24
TPCN2 — mean correlation with KSR1 profile: -0.301; mean distance from KSR1 profile: 1.44
ITLN1 — mean correlation with KSR1 profile: -0.0587; mean distance from KSR1 profile: 3.77
EXO1 — mean correlation with KSR1 profile: 0.0406; mean distance from KSR1 profile: 1.89
CCL17 — mean correlation with KSR1 profile: 0.433; mean distance from KSR1 profile: 2.93
MYL3 — mean correlation with KSR1 profile: -0.652; mean distance from KSR1 profile: 1.76
FADD — mean correlation with KSR1 profile: -0.0268; mean distance from KSR1 profile: 1.6
OSGIN1 — mean correlation with KSR1 profile: -0.191; mean distance from KSR1 profile: 2.39

Copied from above (3 entries):
SEC24D — mean correlation with KSR1 profile: -0.316; mean distance from KSR1 profile: 1.66
MTF2 — mean correlation with KSR1 profile: 0.407; mean distance from KSR1 profile: 1.47
STK17A — mean correlation with KSR1 profile: 0.0535; mean distance from KSR1 profile: 1.46
